In paper PMC7862700 one finds binding signal data, which are given here for 30 sequences.

Common to all, as to assay: DAPPL (digital affinity profiling via proximity ligation, sequencing)
Holding throughout (settings): 10 mM Tris-HCl pH 7.5, 50 mM NaCl, 1 mM DTT, 4% glycerol, room temperature, 30 min; GST-TFs on glutathione beads, 16-mer random dsDNA library, 0.1% …; high values mean tight binding; double strand, one strand shown; scale: fold enrichment (6-mer frequency, TF over GST control)

One experiment deals with T1, ELK1 (UniProt P19419).
T1 sequence: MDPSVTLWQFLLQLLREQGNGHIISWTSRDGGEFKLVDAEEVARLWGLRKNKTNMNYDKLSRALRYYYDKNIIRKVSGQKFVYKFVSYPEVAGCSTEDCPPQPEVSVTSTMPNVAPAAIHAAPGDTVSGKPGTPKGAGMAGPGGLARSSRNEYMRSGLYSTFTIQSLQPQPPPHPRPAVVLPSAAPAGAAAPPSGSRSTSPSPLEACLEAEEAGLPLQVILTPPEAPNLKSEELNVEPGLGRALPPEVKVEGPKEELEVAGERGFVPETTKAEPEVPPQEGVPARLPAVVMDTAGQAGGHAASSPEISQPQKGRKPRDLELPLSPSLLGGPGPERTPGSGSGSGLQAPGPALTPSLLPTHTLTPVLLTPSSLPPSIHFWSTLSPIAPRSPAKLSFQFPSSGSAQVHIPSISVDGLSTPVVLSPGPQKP

For another experiment, the target named is T2, ELK3 (UniProt P41970).
T2 sequence: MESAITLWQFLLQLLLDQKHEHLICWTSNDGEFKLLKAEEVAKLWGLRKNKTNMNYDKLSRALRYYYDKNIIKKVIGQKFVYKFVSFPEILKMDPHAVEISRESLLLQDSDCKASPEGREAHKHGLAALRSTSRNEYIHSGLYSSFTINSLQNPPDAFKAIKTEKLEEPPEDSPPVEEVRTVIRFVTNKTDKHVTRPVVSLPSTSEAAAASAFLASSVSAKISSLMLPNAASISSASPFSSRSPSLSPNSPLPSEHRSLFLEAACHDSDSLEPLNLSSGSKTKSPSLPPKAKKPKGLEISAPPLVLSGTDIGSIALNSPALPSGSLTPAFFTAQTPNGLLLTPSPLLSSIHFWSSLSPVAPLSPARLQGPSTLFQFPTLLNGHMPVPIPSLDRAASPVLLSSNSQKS

A further experiment deals with T3, SPIC (UniProt Q8N5J4).
T3 sequence: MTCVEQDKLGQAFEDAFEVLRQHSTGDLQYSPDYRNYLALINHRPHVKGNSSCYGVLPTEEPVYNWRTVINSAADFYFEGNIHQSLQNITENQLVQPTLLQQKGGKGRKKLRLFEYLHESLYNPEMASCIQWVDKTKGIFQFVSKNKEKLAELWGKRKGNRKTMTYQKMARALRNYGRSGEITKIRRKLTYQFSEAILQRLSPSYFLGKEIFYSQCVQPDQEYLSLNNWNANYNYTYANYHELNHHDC

A further experiment addresses T4, ETS2 (UniProt P15036).
T4 sequence: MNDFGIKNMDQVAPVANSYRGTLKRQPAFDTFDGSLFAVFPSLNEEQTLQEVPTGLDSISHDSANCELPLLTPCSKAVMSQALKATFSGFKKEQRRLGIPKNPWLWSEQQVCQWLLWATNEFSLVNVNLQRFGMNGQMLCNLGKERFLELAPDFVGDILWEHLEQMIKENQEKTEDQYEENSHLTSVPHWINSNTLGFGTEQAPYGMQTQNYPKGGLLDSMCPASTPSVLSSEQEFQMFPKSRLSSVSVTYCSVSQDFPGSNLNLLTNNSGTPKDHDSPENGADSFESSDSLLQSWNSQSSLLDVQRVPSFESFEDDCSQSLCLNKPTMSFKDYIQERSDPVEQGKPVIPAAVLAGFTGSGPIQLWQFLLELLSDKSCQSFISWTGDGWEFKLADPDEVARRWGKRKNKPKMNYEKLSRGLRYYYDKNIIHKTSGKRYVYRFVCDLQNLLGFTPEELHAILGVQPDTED

A further experiment addresses T5, ETV3 (UniProt P41162-2).
T5 sequence: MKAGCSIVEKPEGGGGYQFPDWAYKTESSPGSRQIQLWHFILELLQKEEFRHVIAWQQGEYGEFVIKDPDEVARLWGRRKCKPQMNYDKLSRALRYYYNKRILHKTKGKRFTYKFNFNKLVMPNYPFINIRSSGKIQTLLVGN

Only a part is listed here, and it is no random draw. At the low end of the ranking the order means little.

As for GCGGGC, the binding signal was 0.763 with ELK1; 0.795 with ELK3; 0.8 in the experiment with SPIC; 0.775 with ETS2; 0.789 with ETV3.

For the sequence CGCCAG, the binding signal with ELK1 was determined as 0.632; with ELK3, 0.674; with SPIC it was 0.63; with ETS2, 0.623; with ETV3, 0.639.

GGTGCC: the binding signal came to 0.789 with ELK1; 0.723 in the experiment with ELK3; 0.804 in the experiment with SPIC; 0.738 with ETS2; 0.81 with ETV3.

For the sequence GGTCCG, the binding signal with ELK1 came to 0.722; in the experiment with ELK3, 0.617; with SPIC, 0.863; with ETS2, 0.804; in the experiment with ETV3, 0.809.

As for GCGTAC, the binding signal with ELK1 stood at 0.899; in the experiment with ELK3 it was 0.974; with SPIC, 0.9; in the experiment with ETS2, 0.947; in the experiment with ETV3 it was 0.838.

On to TGAGGG, for which the binding signal is 0.7 in the experiment with ELK1; 0.6 with ELK3; 0.848 with SPIC; 0.661 with ETS2; 0.633 with ETV3.

Take GTCGCA: the binding signal with ELK1 amounted to 0.833; in the experiment with ELK3 it was 0.645; with SPIC, 0.739; with ETS2, 0.75; with ETV3 it was 0.718.

For the sequence AGGGGC, the binding signal with ELK1 was 0.839; with ELK3 it was 0.814; with SPIC it was 0.703; in the experiment with ETS2, 0.785; with ETV3 it was 0.741.

As for CAGTAG, the binding signal in the experiment with ELK1 was 0.625; with ELK3 it was 0.581; with SPIC it was 0.661; with ETS2, 0.592; with ETV3, 0.576.

For the sequence AAGCCA, the binding signal with ELK1 came out at 0.861; with ELK3, 0.878; with SPIC, 0.869; in the experiment with ETS2, 0.868; with ETV3 it was 0.824.

Take GGCGTA: the binding signal with ELK1 stood at 0.687; with ELK3, 0.647; in the experiment with SPIC, 0.72; in the experiment with ETS2 it was 0.564; in the experiment with ETV3, 0.607.

CGTGCT: the binding signal stood at 0.885 with ELK1; 0.78 in the experiment with ELK3; 0.942 with SPIC; 0.901 in the experiment with ETS2; 0.835 with ETV3.

With GGACGT, the binding signal amounted to 0.575 with ELK1; 0.637 with ELK3; 0.581 with SPIC; 0.61 with ETS2; 0.615 with ETV3.

Regarding ACGAGA, the binding signal was found to be 0.704 with ELK1; 0.722 with ELK3; 0.615 in the experiment with SPIC; 0.703 with ETS2; 0.65 with ETV3.

In the case of CAGCGT, the binding signal with ELK1 was 0.816; with ELK3 it was 0.84; in the experiment with SPIC it was 0.79; in the experiment with ETS2, 0.819; with ETV3, 0.857.

CGGGCC: the binding signal worked out at 0.73 with ELK1; 0.735 with ELK3; 0.652 in the experiment with SPIC; 0.742 in the experiment with ETS2; 0.813 with ETV3.

Consider GTGTGA, for which the binding signal is 0.53 with ELK1; 0.591 with ELK3; 0.554 in the experiment with SPIC; 0.591 with ETS2; 0.606 in the experiment with ETV3.

TAGGCG: the binding signal in the experiment with ELK1 turned out to be 0.627; with ELK3, 0.55; in the experiment with SPIC, 0.646; with ETS2, 0.631; in the experiment with ETV3, 0.552.

Take GAACAG: the binding signal worked out at 0.963 in the experiment with ELK1; 0.925 in the experiment with ELK3; 0.95 with SPIC; 0.975 in the experiment with ETS2; 1.05 with ETV3.

Turning to GGAATC, the binding signal with ELK1 is 0.715; in the experiment with ELK3 it was 0.732; in the experiment with SPIC, 0.726; in the experiment with ETS2, 0.746; with ETV3 it was 0.847.

For GAGGTC, the binding signal was 0.595 with ELK1; 0.554 with ELK3; 0.603 with SPIC; 0.613 with ETS2; 0.635 in the experiment with ETV3.

For the sequence CAGGGG, the binding signal in the experiment with ELK1 came out at 0.596; in the experiment with ELK3, 0.545; with SPIC it was 0.469; with ETS2 it was 0.586; with ETV3, 0.528.

Consider GTTCGG, for which the binding signal was determined as 0.572 in the experiment with ELK1; 0.575 with ELK3; 0.753 with SPIC; 0.588 with ETS2; 0.66 with ETV3.

For the sequence GGGGTG, the binding signal with ELK1 was determined as 0.635; with ELK3, 0.718; with SPIC it was 0.568; with ETS2, 0.689; in the experiment with ETV3, 0.697.

GGAGCC: the binding signal came out at 0.329 with ELK1; 0.308 with ELK3; 0.36 with SPIC; 0.322 in the experiment with ETS2; 0.319 in the experiment with ETV3.

Take GGGACT: the binding signal in the experiment with ELK1 was determined as 0.689; in the experiment with ELK3, 0.638; with SPIC it was 0.611; with ETS2, 0.703; in the experiment with ETV3, 0.715.

As to CGGCCG, the binding signal was 0.852 in the experiment with ELK1; 0.87 with ELK3; 0.815 with SPIC; 0.795 in the experiment with ETS2; 0.875 with ETV3.

On to GAGCAC, for which the binding signal with ELK1 worked out at 0.758; in the experiment with ELK3, 0.7; in the experiment with SPIC, 0.751; with ETS2, 0.67; in the experiment with ETV3, 0.703.

On to CAGGTC, for which the binding signal in the experiment with ELK1 came to 0.748; with ELK3 it was 0.671; in the experiment with SPIC, 0.592; with ETS2 it was 0.682; in the experiment with ETV3 it was 0.687.

Consider GTGAAA, for which the binding signal with ELK1 stood at 0.711; with ELK3, 0.711; in the experiment with SPIC, 0.69; with ETS2, 0.752; with ETV3 it was 0.715.
